Results are given in words; binding and its absence hold for the method and conditions named. Binding seen in cells or lysates may run through a third protein. These calls come from enrichment with a bait or labelling near it, and not all partners need be listed. Where a sequence is shown, tags or fusion partners need not be part of it.

The chains behind the UniProt entries cited, without tags or fusion partners.
UniProt Q05397: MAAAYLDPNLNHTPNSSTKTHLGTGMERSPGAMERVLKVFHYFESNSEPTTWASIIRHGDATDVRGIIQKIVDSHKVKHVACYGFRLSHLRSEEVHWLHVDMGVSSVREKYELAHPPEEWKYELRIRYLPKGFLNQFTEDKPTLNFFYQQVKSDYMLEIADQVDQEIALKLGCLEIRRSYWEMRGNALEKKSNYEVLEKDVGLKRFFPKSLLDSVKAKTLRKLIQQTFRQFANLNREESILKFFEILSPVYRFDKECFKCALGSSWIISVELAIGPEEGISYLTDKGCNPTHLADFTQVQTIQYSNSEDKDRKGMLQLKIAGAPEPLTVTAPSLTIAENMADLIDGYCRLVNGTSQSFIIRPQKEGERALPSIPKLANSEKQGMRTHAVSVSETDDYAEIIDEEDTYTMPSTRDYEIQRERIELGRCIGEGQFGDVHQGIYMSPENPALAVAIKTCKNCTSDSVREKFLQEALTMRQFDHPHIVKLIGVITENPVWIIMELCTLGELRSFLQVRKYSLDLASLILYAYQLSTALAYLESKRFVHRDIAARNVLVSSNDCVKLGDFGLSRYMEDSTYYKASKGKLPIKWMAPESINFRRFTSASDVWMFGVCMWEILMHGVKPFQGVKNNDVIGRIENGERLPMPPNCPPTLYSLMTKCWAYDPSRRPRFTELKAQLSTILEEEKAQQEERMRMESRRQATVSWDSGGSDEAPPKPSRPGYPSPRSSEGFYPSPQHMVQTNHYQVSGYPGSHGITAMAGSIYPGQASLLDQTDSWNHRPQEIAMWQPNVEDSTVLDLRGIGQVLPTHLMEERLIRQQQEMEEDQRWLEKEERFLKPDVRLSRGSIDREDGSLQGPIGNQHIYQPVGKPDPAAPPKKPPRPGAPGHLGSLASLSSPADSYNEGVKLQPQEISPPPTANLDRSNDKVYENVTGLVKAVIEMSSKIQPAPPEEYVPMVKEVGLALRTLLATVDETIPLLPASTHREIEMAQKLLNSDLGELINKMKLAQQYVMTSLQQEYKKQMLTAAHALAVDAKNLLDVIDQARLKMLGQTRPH

For this assay, the target named is Focal adhesion kinase 1 (human (endogenous in HCT-116)) (UniProt Q05397). Briefly: affinity purification with mass spectrometry; anti-FAK polyclonal antibody and Protein A/G agarose on 1.5 mg HCT-116 total cell lysate, cells untreated (regular IP) or stimulated with 10 ng/ml EGF for 30 min; rabbit IgG as control; 1D SDS-PAGE, in-gel trypsin digestion, nano-LC-MS/MS; the proteins of Table 2 were found only with EGF ….

B1: WD repeat-containing protein 46 (protein, UniProt O15213 1-610)
chain: METAPKPGKDVPPKKDKLQTKRKKPRRYWEEETVPTTAGASPGPPRNKKNRELRPQRPKNAYILKKSRISKKPQVPKKPREWKNPESQRGLSGTQDPFPGPAPVPVEVVQKFCRIDKSRKLPHSKAKTRSRLEVAEAEEEETSIKAARSELLLAEEPGFLEGEDGEDTAKICQADIVEAVDIASAAKHFDLNLRQFGPYRLNYSRTGRHLAFGGRRGHVAALDWVTKKLMCEINVMEAVRDIRFLHSEALLAVAQNRWLHIYDNQGIELHCIRRCDRVTRLEFLPFHFLLATASETGFLTYLDVSVGKIVAALNARAGRLDVMSQNPYNAVIHLGHSNGTVSLWSPAMKEPLAKILCHRGGVRAVAVDSTGTYMATSGLDHQLKIFDLRGTYQPLSTRTLPHGAGHLAFSQRGLLVAGMGDVVNIWAGQGKASPPSLEQPYLTHRLSGPVHGLQFCPFEDVLGVGHTGGITSMLVPGAGEPNFDGLESNPYRSRKQRQEWEVKALLEKVPAELICLDPRALAEVDVISLEQGKKEQIERLGYDPQAKAPFQPKPKQKGRSSTASLVKRKRKVMDEEHRDKVRQSLQQQHHKEAKAKPTGARPSALDRFVR
Regarding B1, the binding result was “binds”.

B2: Isoform 3 of Drebrin (protein, UniProt Q16643-3 1-695)
chain: MAGVSFSGHRLELLAAYEEVIREESAADWALYTYEDGSDDLKLAASGEGGLQELSGHFENQKVMYGFCSVKDSQAALPKYVLINWVGEDVPDARKCACASHVAKVAEFFQGVDVIVNASSVEDIDAGAIGQRLSNGLARLSSPVLHRLRLREDENAEPVGTTYQKTDAAVEMKRINREQFWEQAKKEEELRKEEERKKALDERLRFEQERMEQERQEQEERERRYREREQQIEEHRRKQQTLEAEEAKRRLKEQSIFGDHRDEEEETHMKKSESEVEEAAAIIAQRPDNPREFFKQQERVASASAGSCDVPSPFNHRPGRPYCPFIKASDSGPSSSSSSSSSPPRTPFPYITCHRTPNLSSSLPCSHLDSHRRMAPTPIPTRSPSDSSTASTPVAEQIERALDEVTSSQPPPLPPPPPPAQETQEPSPILDSEETRAAAPQAWAGPMEEPPQAQAPPRGPGSPAEDLMFMESAEQAVLAAPVEPATADATEIHDAADTIETDTATADTTVANNVPPAATSLIDLWPGNGEGASTLQGEPRAPTPPSGTEVTLAEVPLLDEVAPEPLLPAGEGCATLLNFDELPEPPATFCDPEEVEGESLAAPQTPTLPSALEELEQEQEPEPHLLTNGETTQKEGTQASEGYFSQSQEEEFAQSEELCAKAPPPVFYNKPPEIDITCWDADPVPEEEEGFEGGD
For the molecule B2, the binding result is “binds”.

B3: Ladinin-1 (protein, UniProt O00515 1-517)
chain: MAVSRKDWSALSSLARQRTLEDEEEQERERRRRHRNLSSTTDDEAPRLSQNGDRQASASERLPSVEEAEVPKPLPPASKDEDEDIQSILRTRQERRQRRQVVEAAQAPIQERLEAEEGRNSLSPVQATQKPLVSKKELEIPPRRRLSREQRGPWALEEESLVGREPEERKKGVPEKSPVLEKSSMPKKTAPEKSLVSDKTSISEKVLASEKTSLSEKIAVSEKRNSSEKKSVLEKTSVSEKSLAPGMALGSGRRLVSEKASIFEKALASEKSPTADAKPAPKRATASEQPLAQEPPASGGSPATTKEQRGRALPGKNLPSLAKQGASDPPTVASRLPPVTLQVKIPSKEEEADMSSPTQRTYSSSLKRSSPRTISFRMKPKKENSETTLTRSASMKLPDNTVKLGEKLERYHTAIRRSESVKSRGLPCTELFVAPVGVASKRHLFEKELAGQSRAEPASSRKENLRLSGVVTSRLNLWISRTQESGDQDPQEAQKASSATERTQWGQKSDSSLDAEV
As to B3, the binding result is “binds”.

B4: Matrin-3 (protein, UniProt P43243 1-847)
chain: MSKSFQQSSLSRDSQGHGRDLSAAGIGLLAAATQSLSMPASLGRMNQGTARLASLMNLGMSSSLNQQGAHSALSSASTSSHNLQSIFNIGSRGPLPLSSQHRGDADQASNILASFGLSARDLDELSRYPEDKITPENLPQILLQLKRRRTEEGPTLSYGRDGRSATREPPYRVPRDDWEEKRHFRRDSFDDRGPSLNPVLDYDHGSRSQESGYYDRMDYEDDRLRDGERCRDDSFFGETSHNYHKFDSEYERMGRGPGPLQERSLFEKKRGAPPSSNIEDFHGLLPKGYPHLCSICDLPVHSNKEWSQHINGASHSRRCQLLLEIYPEWNPDNDTGHTMGDPFMLQQSTNPAPGILGPPPPSFHLGGPAVGPRGNLGAGNGNLQGPRHMQKGRVETSRVVHIMDFQRGKNLRYQLLQLVEPFGVISNHLILNKINEAFIEMATTEDAQAAVDYYTTTPALVFGKPVRVHLSQKYKRIKKPEGKPDQKFDQKQELGRVIHLSNLPHSGYSDSAVLKLAEPYGKIKNYILMRMKSQAFIEMETREDAMAMVDHCLKKALWFQGRCVKVDLSEKYKKLVLRIPNRGIDLLKKDKSRKRSYSPDGKESPSDKKSKTDGSQKTESSTEGKEQEEKSGEDGEKDTKDDQTEQEPNMLLESEDELLVDEEEAAALLESGSSVGDETDLANLGDVASDGKKEPSDKAVKKDGSASAAAKKKLKKVDKIEELDQENEAALENGIKNEENTEPGAESSENADDPNKDTSENADGQSDENKDDYTIPDEYRIGPYQPNVPVGIDYVIPKTGFYCKLCSLFYTNEEVAKNTHCSSLPHYQKLKKFLNKLAEERRQKKET
Regarding B4, the binding entry is “binds”.

B5: Isoform 3 of La-related protein 7 (protein, UniProt Q4G0J3-3 1-589)
chain: MIPNIEGMETESGNQEKVMEEESTEKKKEVEKKKRSRVKQVLADIAKQVDFWFGDANLHKDRFLREQIEKSRDGYVDISLLVSFNKMKKLTTDGKLIARALRSSAVVELDLEGTRIRRKKPLGERPKDEDERTVYVELLPKNVNHSWIERVFGKCGNVVYISIPHYKSTGDPKGFAFVEFETKEQAAKAIEFLNNPPEEAPRKPGIFPKTVKNKPIPALRVVEEKKKKKKKKGRMKKEDNIQAKEENMDTSNTSISKMKRSRPTSEGSDIESTEPQKQCSKKKKKRDRVEASSLPEVRTGKRKRSSSEDAESLAPRSKVKKIIQKDIIKEASEASKENRDIEISTEEEKDTGDLKDSSLLKTKRKHKKKHKERHKMGEEVIPLRVLSKSEWMDLKKEYLALQKASMASLKKTISQIKSESEMETDSGVPQNTGMKNEKTANREECRTQEKVNATGPQFVSGVIVKIISTEPLPGRKQVRDTLAAISEVLYVDLLEGDTECHARFKTPEDAQAVINAYTEINKKHCWKLEILSGDHEQRYWQKILVDRQAKLNQPREKKRGTEKLITKAEKIRLAKTQQASKHIRFSEYD
For the molecule B5, the binding result is recorded as “binds”.

B6: Putative ribosome-binding factor A, mitochondrial (protein, UniProt Q8N0V3-1 42-343)
chain: KNWLKKFASKTKKKVWYESPSLGSHSTYKPSKLEFLMRSTSKKTRKEDHARLRALNGLLYKALTDLLCTPEVSQELYDLNVELSKVSLTPDFSACRAYWKTTLSAEQNAHMEAVLQRSAAHMRHLLMSQQTLRNVPPIVFVQDKGNAALAELDQLLAVADFGPRDERDNFVQNDFRDPDAPQPCGTTEPTTSSSLCGIDHEALNKQIMEYKRRKDKGLGGLVWQGQVAELTTQMKKGRKRAKPRLEQDSSLKSYLSGEEVEDDLDLVGAPEYECYAPDTEELEAERGGGRTEDGHSCGASRE
Consider B6, for which the binding result was “binds”.

B7: Junction plakoglobin (protein, UniProt P14923 1-745)
chain: MEVMNLMEQPIKVTEWQQTYTYDSGIHSGANTCVPSVSSKGIMEEDEACGRQYTLKKTTTYTQGVPPSQGDLEYQMSTTARAKRVREAMCPGVSGEDSSLLLATQVEGQATNLQRLAEPSQLLKSAIVHLINYQDDAELATRALPELTKLLNDEDPVVVTKAAMIVNQLSKKEASRRALMGSPQLVAAVVRTMQNTSDLDTARCTTSILHNLSHHREGLLAIFKSGGIPALVRMLSSPVESVLFYAITTLHNLLLYQEGAKMAVRLADGLQKMVPLLNKNNPKFLAITTDCLQLLAYGNQESKLIILANGGPQALVQIMRNYSYEKLLWTTSRVLKVLSVCPSNKPAIVEAGGMQALGKHLTSNSPRLVQNCLWTLRNLSDVATKQEGLESVLKILVNQLSVDDVNVLTCATGTLSNLTCNNSKNKTLVTQNSGVEALIHAILRAGDKDDITEPAVCALRHLTSRHPEAEMAQNSVRLNYGIPAIVKLLNQPNQWPLVKATIGLIRNLALCPANHAPLQEAAVIPRLVQLLVKAHQDAQRHVAAGTQQPYTDGVRMEEIVEGCTGALHILARDPMNRMEIFRLNTIPLFVQLLYSSVENIQRVAAGVLCELAQDKEAADAIDAEGASAPLMELLHSRNEGTATYAAAVLFRISEDKNPDYRKRVSVELTNSLFKHDPAAWEAAQSMIPINEPYGDDMDATYRPMYSSDVPLDPLEMHMDMDGDYPIDTYSDGLRPPYPTADHMLA
For the molecule B7, the binding entry was “binds”.

B8: Ribosome biogenesis regulatory protein homolog (protein, UniProt Q15050 1-365)
chain: MEGQSVEELLAKAEQDEAEKLQRITVHKELELQFDLGNLLASDRNPPTGLRCAGPTPEAELQALARDNTQLLINQLWQLPTERVEEAIVARLPEPTTRLPREKPLPRPRPLTRWQQFARLKGIRPKKKTNLVWDEVSGQWRRRWGYQRARDDTKEWLIEVPGNADPLEDQFAKRIQAKKERVAKNELNRLRNLARAHKMQLPSAAGLHPTGHQSKEELGRAMQVAKVSTASVGRFQERLPKEKVPRGSGKKRKFQPLFGDFAAEKKNQLELLRVMNSKKPQLDVTRATNKQMREEDQEEAAKRRKMSQKGKRKGGRQGPGGKRKGGPPSQGGKRKGGLGGKMNSGPPGLGGKRKGGQRPGGKRRK
On to B8, for which the binding entry is “binds”.

B9: Zyxin (protein, UniProt Q15942 1-572)
chain: MAAPRPSPAISVSVSAPAFYAPQKKFGPVVAPKPKVNPFRPGDSEPPPAPGAQRAQMGRVGEIPPPPPEDFPLPPPPLAGDGDDAEGALGGAFPPPPPPIEESFPPAPLEEEIFPSPPPPPEEEGGPEAPIPPPPQPREKVSSIDLEIDSLSSLLDDMTKNDPFKARVSSGYVPPPVATPFSSKSSTKPAAGGTAPLPPWKSPSSSQPLPQVPAPAQSQTQFHVQPQPQPKPQVQLHVQSQTQPVSLANTQPRGPPASSPAPAPKFSPVTPKFTPVASKFSPGAPGGSGSQPNQKLGHPEALSAGTGSPQPPSFTYAQQREKPRVQEKQHPVPPPAQNQNQVRSPGAPGPLTLKEVEELEQLTQQLMQDMEHPQRQNVAVNELCGRCHQPLARAQPAVRALGQLFHIACFTCHQCAQQLQGQQFYSLEGAPYCEGCYTDTLEKCNTCGEPITDRMLRATGKAYHPHCFTCVVCARPLEGTSFIVDQANRPHCVPDYHKQYAPRCSVCSEPIMPEPGRDETVRVVALDKNFHMKCYKCEDCGKPLSIEADDNGCFPLDGHVLCRKCHTARAQT
Consider B9, for which the binding result is “binds”.

B10: Isoform 1 of Voltage-dependent anion-selective channel protein 2 (protein, UniProt P45880-1 1-309)
chain: MSWCNELRLPALKQHSIGRGLESHITMCIPPSYADLGKAARDIFNKGFGFGLVKLDVKTKSCSGVEFSTSGSSNTDTGKVTGTLETKYKWCEYGLTFTEKWNTDNTLGTEIAIEDQICQGLKLTFDTTFSPNTGKKSGKIKSSYKRECINLGCDVDFDFAGPAIHGSAVFGYEGWLAGYQMTFDSAKSKLTRNNFAVGYRTGDFQLHTNVNDGTEFGGSIYQKVCEDLDTSVNLAWTSGTNCTRFGIAAKYQLDPTASISAKVNNSSLIGVGYTQTLRPGVKLTLSALVDGKSINAGGHKVGLALELEA
B10: the binding entry was “binds”.

These data come from PMC6733923.
